# Results published in the supplement of paper PMC10849652.
# Amino acid sequences for entries named in this document (tags omitted). A change or cut given only in a name is not applied to a line headed by its entry.
# UniProt P04075: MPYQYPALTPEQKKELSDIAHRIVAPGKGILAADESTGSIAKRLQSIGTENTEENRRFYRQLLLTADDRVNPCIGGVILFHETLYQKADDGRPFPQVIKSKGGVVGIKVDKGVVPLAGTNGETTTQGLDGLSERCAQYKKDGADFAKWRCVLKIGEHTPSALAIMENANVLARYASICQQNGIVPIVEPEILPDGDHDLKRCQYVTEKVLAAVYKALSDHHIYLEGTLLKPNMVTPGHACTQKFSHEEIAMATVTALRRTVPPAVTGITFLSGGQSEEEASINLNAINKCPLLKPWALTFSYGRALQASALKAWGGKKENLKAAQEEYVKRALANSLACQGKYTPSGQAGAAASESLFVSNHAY
# UniProt Q01433: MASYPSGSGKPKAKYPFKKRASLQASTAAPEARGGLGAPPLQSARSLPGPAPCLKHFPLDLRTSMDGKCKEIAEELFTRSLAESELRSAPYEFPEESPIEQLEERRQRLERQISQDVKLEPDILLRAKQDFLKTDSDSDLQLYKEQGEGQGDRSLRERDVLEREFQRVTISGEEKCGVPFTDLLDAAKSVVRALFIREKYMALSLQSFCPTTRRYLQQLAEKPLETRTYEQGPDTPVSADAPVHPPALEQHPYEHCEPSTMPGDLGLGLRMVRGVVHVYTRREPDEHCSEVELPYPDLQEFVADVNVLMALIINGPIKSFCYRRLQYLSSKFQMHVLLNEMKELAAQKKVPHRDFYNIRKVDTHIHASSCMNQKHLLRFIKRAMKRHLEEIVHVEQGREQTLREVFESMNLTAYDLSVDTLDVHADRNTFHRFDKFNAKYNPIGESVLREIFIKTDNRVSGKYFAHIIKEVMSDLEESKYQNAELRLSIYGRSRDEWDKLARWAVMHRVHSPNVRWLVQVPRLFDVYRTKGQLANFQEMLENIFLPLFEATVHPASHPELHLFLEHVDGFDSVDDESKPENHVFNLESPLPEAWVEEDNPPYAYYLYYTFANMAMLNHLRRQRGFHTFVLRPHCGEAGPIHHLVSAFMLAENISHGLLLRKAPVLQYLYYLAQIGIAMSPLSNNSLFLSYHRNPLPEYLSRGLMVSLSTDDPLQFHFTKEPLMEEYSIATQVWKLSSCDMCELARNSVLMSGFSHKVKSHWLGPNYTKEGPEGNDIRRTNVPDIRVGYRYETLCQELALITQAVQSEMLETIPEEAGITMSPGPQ
# UniProt Q9UPM8: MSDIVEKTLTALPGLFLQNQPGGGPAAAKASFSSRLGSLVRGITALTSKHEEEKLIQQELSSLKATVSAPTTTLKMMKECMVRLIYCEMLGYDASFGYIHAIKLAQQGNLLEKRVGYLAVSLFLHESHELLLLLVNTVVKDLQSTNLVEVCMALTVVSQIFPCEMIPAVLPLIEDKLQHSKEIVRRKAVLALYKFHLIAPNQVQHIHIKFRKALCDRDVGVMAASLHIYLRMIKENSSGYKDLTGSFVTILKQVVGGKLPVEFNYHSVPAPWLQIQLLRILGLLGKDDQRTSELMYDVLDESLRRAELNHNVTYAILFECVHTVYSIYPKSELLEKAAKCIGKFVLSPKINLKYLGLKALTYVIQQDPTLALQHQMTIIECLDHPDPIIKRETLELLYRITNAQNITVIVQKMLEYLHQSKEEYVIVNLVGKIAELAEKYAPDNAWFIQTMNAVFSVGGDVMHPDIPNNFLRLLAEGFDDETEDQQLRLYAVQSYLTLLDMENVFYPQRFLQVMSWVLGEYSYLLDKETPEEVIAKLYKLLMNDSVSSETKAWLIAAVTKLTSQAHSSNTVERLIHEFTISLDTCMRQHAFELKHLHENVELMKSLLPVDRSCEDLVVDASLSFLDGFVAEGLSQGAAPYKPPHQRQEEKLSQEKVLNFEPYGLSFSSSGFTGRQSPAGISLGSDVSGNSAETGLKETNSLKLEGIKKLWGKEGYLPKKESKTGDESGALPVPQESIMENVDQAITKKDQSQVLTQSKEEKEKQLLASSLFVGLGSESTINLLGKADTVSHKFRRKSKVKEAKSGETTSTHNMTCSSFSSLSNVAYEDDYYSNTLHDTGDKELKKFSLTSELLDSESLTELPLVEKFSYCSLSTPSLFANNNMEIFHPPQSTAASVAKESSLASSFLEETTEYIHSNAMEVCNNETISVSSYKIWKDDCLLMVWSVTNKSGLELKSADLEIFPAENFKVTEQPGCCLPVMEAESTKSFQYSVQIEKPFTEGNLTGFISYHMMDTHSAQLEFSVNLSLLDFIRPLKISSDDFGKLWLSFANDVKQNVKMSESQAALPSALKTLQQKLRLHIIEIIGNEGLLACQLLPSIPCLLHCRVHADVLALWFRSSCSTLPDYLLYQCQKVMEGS
# UniProt P31749: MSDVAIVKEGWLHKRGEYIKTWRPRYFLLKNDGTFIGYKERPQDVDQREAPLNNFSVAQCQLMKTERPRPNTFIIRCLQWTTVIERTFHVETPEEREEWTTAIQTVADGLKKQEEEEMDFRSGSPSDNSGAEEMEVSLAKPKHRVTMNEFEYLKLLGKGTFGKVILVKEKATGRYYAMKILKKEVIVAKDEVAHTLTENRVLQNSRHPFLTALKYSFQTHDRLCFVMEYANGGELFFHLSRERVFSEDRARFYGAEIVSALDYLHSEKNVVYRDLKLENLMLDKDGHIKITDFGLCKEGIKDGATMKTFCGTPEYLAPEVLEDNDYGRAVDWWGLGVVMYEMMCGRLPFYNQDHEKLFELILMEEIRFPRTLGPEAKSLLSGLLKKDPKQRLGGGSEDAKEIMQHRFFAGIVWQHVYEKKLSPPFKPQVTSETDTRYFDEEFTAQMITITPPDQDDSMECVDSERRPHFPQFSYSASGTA
# UniProt O43747: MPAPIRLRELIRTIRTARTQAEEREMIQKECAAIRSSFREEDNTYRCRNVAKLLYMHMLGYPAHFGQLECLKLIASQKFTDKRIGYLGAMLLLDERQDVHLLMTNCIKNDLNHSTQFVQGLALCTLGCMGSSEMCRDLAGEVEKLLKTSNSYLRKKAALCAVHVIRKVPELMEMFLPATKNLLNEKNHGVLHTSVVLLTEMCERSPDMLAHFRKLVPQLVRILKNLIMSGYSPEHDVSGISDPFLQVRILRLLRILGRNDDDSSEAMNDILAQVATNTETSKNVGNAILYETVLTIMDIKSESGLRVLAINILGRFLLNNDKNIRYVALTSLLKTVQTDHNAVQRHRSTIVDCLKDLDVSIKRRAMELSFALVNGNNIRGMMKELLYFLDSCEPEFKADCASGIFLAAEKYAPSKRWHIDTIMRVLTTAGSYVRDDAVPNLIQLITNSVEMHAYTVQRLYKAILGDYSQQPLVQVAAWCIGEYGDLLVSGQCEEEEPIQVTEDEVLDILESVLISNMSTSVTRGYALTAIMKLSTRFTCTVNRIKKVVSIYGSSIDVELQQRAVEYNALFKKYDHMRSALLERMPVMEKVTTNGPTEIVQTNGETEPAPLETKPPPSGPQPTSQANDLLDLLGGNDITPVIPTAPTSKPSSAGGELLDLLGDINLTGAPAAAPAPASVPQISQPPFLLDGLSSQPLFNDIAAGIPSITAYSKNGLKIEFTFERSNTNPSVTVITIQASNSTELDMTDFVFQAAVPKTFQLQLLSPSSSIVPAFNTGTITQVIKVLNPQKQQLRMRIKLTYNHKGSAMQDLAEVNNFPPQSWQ
# UniProt P04083: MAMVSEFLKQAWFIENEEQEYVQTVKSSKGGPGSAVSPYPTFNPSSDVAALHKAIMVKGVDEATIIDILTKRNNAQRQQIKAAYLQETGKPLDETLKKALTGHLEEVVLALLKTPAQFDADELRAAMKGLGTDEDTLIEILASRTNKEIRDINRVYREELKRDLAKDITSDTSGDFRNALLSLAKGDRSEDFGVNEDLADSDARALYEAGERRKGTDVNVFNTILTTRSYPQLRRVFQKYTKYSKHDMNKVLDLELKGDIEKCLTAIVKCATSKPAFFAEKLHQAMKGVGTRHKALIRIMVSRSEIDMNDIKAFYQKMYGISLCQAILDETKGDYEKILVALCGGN
# UniProt Q96BT7: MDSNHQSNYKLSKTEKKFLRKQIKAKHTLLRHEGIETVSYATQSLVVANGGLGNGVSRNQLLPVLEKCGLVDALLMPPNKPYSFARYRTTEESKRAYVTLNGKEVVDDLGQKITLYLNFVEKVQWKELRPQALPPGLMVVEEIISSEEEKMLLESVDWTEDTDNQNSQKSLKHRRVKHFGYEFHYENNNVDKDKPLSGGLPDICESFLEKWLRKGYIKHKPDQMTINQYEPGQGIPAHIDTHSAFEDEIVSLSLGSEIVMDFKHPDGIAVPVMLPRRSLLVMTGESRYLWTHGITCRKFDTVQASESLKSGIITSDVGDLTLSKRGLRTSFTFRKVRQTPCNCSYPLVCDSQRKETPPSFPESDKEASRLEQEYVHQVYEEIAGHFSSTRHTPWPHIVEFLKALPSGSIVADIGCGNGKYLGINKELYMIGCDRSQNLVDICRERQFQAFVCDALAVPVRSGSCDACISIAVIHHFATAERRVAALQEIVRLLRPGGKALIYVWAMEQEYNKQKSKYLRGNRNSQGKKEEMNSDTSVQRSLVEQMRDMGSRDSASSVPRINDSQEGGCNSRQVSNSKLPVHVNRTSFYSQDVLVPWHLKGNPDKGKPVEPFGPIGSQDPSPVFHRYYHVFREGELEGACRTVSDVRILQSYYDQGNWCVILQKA
# UniProt Q9NQW6: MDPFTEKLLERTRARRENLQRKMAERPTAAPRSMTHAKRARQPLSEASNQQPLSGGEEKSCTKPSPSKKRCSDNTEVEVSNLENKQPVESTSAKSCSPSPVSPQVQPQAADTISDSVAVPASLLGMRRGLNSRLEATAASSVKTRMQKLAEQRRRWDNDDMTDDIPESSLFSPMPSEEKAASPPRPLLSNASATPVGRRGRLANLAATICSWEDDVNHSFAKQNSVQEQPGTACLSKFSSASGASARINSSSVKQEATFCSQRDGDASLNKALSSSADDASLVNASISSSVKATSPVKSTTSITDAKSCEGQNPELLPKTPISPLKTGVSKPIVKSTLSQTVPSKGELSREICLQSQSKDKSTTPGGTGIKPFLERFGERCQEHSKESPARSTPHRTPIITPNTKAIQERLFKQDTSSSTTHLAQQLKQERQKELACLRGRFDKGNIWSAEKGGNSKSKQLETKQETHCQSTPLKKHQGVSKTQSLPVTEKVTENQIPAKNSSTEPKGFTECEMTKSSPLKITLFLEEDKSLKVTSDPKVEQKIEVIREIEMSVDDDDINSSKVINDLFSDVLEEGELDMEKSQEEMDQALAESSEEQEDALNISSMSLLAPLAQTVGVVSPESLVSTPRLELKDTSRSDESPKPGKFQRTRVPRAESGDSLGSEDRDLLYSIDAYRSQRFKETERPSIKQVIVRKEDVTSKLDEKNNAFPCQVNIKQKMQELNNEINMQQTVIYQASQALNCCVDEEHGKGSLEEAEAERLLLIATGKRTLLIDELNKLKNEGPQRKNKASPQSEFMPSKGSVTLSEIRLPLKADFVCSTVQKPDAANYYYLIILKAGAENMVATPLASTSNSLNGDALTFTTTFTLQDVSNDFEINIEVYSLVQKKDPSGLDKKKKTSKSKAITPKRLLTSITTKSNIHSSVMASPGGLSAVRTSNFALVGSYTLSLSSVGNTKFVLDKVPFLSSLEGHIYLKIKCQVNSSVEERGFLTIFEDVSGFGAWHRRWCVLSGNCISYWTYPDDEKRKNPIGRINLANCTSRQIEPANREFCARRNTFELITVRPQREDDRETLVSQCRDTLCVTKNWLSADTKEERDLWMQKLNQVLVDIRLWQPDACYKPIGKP
# UniProt P51649: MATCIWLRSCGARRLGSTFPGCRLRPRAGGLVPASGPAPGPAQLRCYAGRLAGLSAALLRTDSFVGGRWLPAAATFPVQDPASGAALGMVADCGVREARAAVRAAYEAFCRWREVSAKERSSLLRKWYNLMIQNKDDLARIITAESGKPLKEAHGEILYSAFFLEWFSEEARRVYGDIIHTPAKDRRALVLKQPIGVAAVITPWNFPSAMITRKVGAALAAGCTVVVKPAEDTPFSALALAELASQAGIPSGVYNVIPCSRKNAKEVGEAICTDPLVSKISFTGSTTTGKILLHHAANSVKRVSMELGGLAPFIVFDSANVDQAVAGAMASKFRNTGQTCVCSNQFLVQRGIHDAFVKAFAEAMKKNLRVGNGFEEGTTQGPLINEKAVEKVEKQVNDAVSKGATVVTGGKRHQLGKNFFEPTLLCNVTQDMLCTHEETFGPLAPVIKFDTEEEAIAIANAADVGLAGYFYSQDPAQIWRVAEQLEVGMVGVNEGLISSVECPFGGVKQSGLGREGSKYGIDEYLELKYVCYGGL
# Some of the results follow.
# Compound: CC1=CC=C(C=C1)SC2=C3C=C(SC3=CN=C2)C(=O)N
# Experiment: log2 fold change, soluble protein after heating vs DMSO (PISA); higher = thermal stabilisation; K562 lysate, 10 uM; active = over 0.2 and 3.5 SD of the protein, either way, in both replicates (recomputed)
# Method in brief: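 K562 pellets were dounce-homogenised in PBS pH 7.4 containing 1 mM MgCl2, and the crude extract, at 1 mg/mL protein, was exposed to 10 μM compound for 30 min. Aliquots were heated for 3 min across 48°C-58°C, pooled, brought to 0.5% NP-40 at 4°C and spun at 21,000xg for 90 min, with the supernatant taken as soluble protein. TMTpro 16plex LC-MS/MS with equalised channel sums quantified that protein. Values are log-two fold changes in thermal stability relative to solvent controls, taken from duplicates.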
row,Target,log2 fold change
1,ALDOA (UniProt P04075),inactive: -0.035
2,ANXA2 (UniProt H0YL33),inactive: -0.144
3,AMPD2 (UniProt Q01433),inactive: 0.006
4,AP4E1 (UniProt Q9UPM8),inactive: -0.049
5,AKT1 (UniProt P31749),inactive: 0.019
6,AP1G1 isoform 2 (UniProt O43747),inactive: -0.007
7,ANKHD1 isoform 6 (UniProt Q8IWZ3),inactive: 0
8,ANXA1 (UniProt P04083),inactive: -0.003
9,ALKBH8 isoform 4 (UniProt Q96BT7),inactive: 0.005
10,AMD1 (UniProt P17707),inactive: -0.119
11,ANLN (UniProt Q9NQW6),inactive: -0.04
12,ALDH5A1 isoform 2 (UniProt P51649),inactive: 0.011
